The values that follow come from patent US7538111B2, “Benzenesulphonamide derivatives, method for production and use thereof for treatment of pain” (Laboratoires Fournier S.A., priority 2003, dated 2009).

By UniProt entry, the sequences of proteins in these tests, tags left out.
UniProt P46663, whole entry: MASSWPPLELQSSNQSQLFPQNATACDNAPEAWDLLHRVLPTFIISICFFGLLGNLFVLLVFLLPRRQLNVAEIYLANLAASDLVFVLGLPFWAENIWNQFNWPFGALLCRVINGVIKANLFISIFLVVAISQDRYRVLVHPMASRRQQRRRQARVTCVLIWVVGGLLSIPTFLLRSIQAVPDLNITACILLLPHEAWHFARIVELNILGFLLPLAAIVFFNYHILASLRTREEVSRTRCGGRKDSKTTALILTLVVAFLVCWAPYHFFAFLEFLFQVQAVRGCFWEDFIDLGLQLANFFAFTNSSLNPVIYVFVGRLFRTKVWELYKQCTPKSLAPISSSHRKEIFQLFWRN

The target in the test is B1 receptor of bradykinin (Homo sapiens, UniProt P46663). The test can be described thus: human umbilical vein contraction by des-Arg10-Kallidin, antagonism at the B1 receptor of bradykinin. The test is classed as cell-based. Conditions: isolated human umbilical vein rings, agonist des-Arg10-Kallidin, pKB=-log KB from EC50 concentration ratio; tested form: difumarate.

Structures were worked out from names or drawings and are uncertain.

As usually defined, the pKB is −log10 of the KB, conventionally taken in molar units. On to `COc1cc(Cl)c(S(=O)(=O)N(C)CCOCC(=O)N2CCC(CN3CCN(C)CC3)CC2)c(Cl)c1`, for which the pKB was 8.
